Laboratory results reported in PubChem BioAssay AID256 (DTP/NCI, 2004).
The list is a part of this screen's results and no random one: it is rich in T/C values a quarter to a half above the control, in often repeated tests (any T/C) and in doses without a T/C. Further doses and runs are listed elsewhere. T/C gives the treated animals as a percentage of the vehicle group. Some entries give survivors of the animals treated and no T/C: the source files T/C as zero there, which appears to mark a toxic dose or a test without result, not a measured value. Some doses without a T/C left all or most animals alive at the check, yet need not have been tolerated: survival well below the control is almost never listed, so the zero probably covers shortened survival too. Survivors were counted at the toxicity check, usually on the fifth day, unless a day is given; later deaths do not show. Schedule codes are those of the source, taken here to give the interval after Q, in days (D) or hours (H), and the number of doses after X. Where survival is the endpoint, this PubChem deposit counts one and a half times the control or more as active, and values a quarter to a half above the control carry no call in these data; other NCI protocols may use other cut-offs. Some entries were tested several times; the values are given in rising order. Some T/C values carry the count of animals alive at the toxicity check (mostly the fifth day); without a count, all were alive then.

System: CD2F1 mice, L1210 leukemia ip, survival T/C
Assay: NCI In Vivo Anticancer Drug Screen. Data for tumor model L1210 Leukemia (intraperitoneal) in CD2F1 (CDF1) mice
Settings: higher T/C = longer survival
Procedure, shortened: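 Ratio T/C, where T is the treated-group value and C the vehicle-dosed control value, from mice implanted with a transplantable tumor.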

[1] = T/C endpoint: mean survival time, dose: 400.0 mg/kg/injection, schedule: Q04DX003 (ip), vehicle: saline with Tween-80
[2] = T/C endpoint: mean survival time, dose: 300.0 mg/kg/injection, schedule: Q04DX003 (ip), vehicle: saline
[3] = T/C endpoint: mean survival time, dose: 400.0 mg/kg/injection, schedule: Q01DX001 (ip), vehicle: saline

Structure (SMILES): CO[C@@]12[C@@H]3N[C@@H]3CN1C1=C(C(=O)C(N(C)c3ccc(O)cc3)=C(C)C1=O)[C@@H]2COC(N)=O
- T/C (T/C endpoint: median survival time, dose: 24.0 mg/kg/injection, schedule: Q01DX001 (ip), vehicle: distilled water + Tween-80): 136 % of control
- T/C (T/C endpoint: median survival time, dose: 48.0 mg/kg/injection, schedule: Q01DX001 (ip), vehicle: distilled water + Tween-80): 133 % of control
- T/C (T/C endpoint: median survival time, dose: 96.0 mg/kg/injection, schedule: Q01DX001 (ip), vehicle: distilled water + Tween-80): 141 % of control

Structure (SMILES): OC1CC2CC1C1C=CCC21 (stereo not given)
- survivor count [1]: 2 of 6

Structure (SMILES): Cc1ccc(C(=O)c2ccc(C)cc2)cc1
- survivor count (T/C endpoint: mean survival time, dose: 800.0 mg/kg/injection, schedule: Q04DX002 (ip), vehicle: saline): 0 of 6

Structure (SMILES): COc1cc2nc(/C=C/c3nc4cc(OC)c(OC)cc4[nH]3)[nH]c2cc1OC
- survivor count (T/C endpoint: mean survival time, dose: 200.0 mg/kg/injection, schedule: Q01DX001 (ip), vehicle: saline with Tween-80): 2 of 6
- survivor count (T/C endpoint: mean survival time, dose: 400.0 mg/kg/injection, schedule: Q01DX001 (ip), vehicle: saline with Tween-80): 0 of 6

Structure (SMILES): FC(F)(F)c1nc2nc(Cl)c(Cl)nc2[nH]1
- T/C (T/C endpoint: mean survival time, dose: 40.0 mg/kg/injection, schedule: Q01DX009 (ip), vehicle: saline with Tween-80): 137 % of control [5 of 6 alive]
- T/C (T/C endpoint: mean survival time, dose: 50.0 mg/kg/injection, schedule: Q01DX009 (ip), vehicle: saline): 132 % of control
- T/C (T/C endpoint: median survival time, dose: 100.0 mg/kg/injection, schedule: Q04DX003 (ip), vehicle: saline with Tween-80): 132 % of control [5 of 6 alive]
- survivor count (T/C endpoint: median survival time, dose: 150.0 mg/kg/injection, schedule: Q04DX003 (ip), vehicle: saline with Tween-80): 3 of 6

Structure (SMILES): CC(=O)CC(=O)c1ccccc1.CC(=O)CC(=O)c1ccccc1.CC(=O)CC(=O)c1ccccc1.[Co]
- survivor count (T/C endpoint: mean survival time, dose: 100.0 mg/kg/injection, schedule: Q04DX003 (ip), vehicle: saline): 3 of 6
- survivor count (T/C endpoint: mean survival time, dose: 200.0 mg/kg/injection, schedule: Q04DX003 (ip), vehicle: saline): 1 of 6
- survivor count [2]: 0 of 6

Structure (SMILES): O=C(O)C[Se]CC(=O)O
- survivor count [3]: 3 of 6

Structure (SMILES): CCC(=O)Oc1ccc(C2N(Cc3ccc(N(C)C)cc3)CCCN2Cc2ccc(N(C)C)cc2)cc1
- survivor count (T/C endpoint: mean survival time, dose: 50.0 mg/kg/injection, schedule: Q01DX009 (ip), vehicle: saline with Tween-80): 6 of 6
- survivor count (T/C endpoint: mean survival time, dose: 100.0 mg/kg/injection, schedule: Q01DX009 (ip), vehicle: saline with Tween-80): 4 of 6
- survivor count [1]: 6 of 6

Structure (SMILES): CCCCC(O)C(=O)O (stereo not given)
- survivor count (T/C endpoint: mean survival time, dose: 300.0 mg/kg/injection, schedule: Q01DX001 (ip), vehicle: saline): 3 of 6

Structure (SMILES): CCCCOC(=O)CCC(NC(=O)c1ccc(N(C)Cc2cnc3nc(N)nc(N)c3n2)cc1)C(=O)OCCCC (stereo not given)
- T/C (T/C endpoint: mean survival time, dose: 0.38 mg/kg/injection, schedule: Q01DX009 (ip), vehicle: distilled water + Tween-80): 125 and 126 % of control
- T/C (T/C endpoint: mean survival time, dose: 0.75 mg/kg/injection, schedule: Q01DX009 (ip), vehicle: distilled water + Tween-80): 125 % of control
- T/C (T/C endpoint: mean survival time, dose: 1.5 mg/kg/injection, schedule: Q01DX009 (ip), vehicle: distilled water + Tween-80): 132 % of control
- survivor count (T/C endpoint: mean survival time, dose: 3.0 mg/kg/injection, schedule: Q01DX009 (ip), vehicle: distilled water + Tween-80): 6 of 6
- survivor count (T/C endpoint: mean survival time, dose: 6.0 mg/kg/injection, schedule: Q01DX009 (ip), vehicle: distilled water + Tween-80): 6 of 6
- survivor count (T/C endpoint: mean survival time, dose: 12.0 mg/kg/injection, schedule: Q01DX009 (ip), vehicle: distilled water + Tween-80): 5 of 6

Structure (SMILES): CC1(C)NC(=O)N(Br)C1=O
- survivor count (T/C endpoint: mean survival time, dose: 400.0 mg/kg/injection, schedule: Q01DX009 (ip), vehicle: saline with Tween-80): 0 of 6

Structure (SMILES): CCC1(O)CC2CN(CCc3c([nH]c4ccccc34)C(C(=O)OC)(c3cc4c(cc3OC)N(C)C3C(O)(C(=O)NCCO)C(O)C5(CC)C=CCN6CCC43C65)C2)C1 (stereo not given)
- T/C (T/C endpoint: mean survival time, dose: 0.13 mg/kg/injection, schedule: Q01DX009 (ip), vehicle: water): 127 % of control
- T/C (T/C endpoint: mean survival time, dose: 0.22 mg/kg/injection, schedule: Q01DX009 (ip), vehicle: water): 125 % of control
- survivor count (T/C endpoint: mean survival time, dose: 0.6 mg/kg/injection, schedule: Q01DX009 (ip), vehicle: water): 4 of 6
- survivor count (T/C endpoint: mean survival time, dose: 1.0 mg/kg/injection, schedule: Q01DX009 (ip), vehicle: water): 0 of 6
- survivor count (T/C endpoint: mean survival time, dose: 4.0 mg/kg/injection, schedule: Q04DX003 (ip), vehicle: water): 4 of 6

Structure (SMILES): CN(C)S(=O)(=O)c1ccc(Cl)c([N+](=O)[O-])c1
- survivor count (T/C endpoint: mean survival time, dose: 400.0 mg/kg/injection, schedule: Q04DX002 (ip), vehicle: Klucel (hydroxypropylcellulose) (HPC)): 0 of 3

Structure (SMILES): CCOC(=O)C1=C(C)NC(C)=C(C(=O)OCC)C1c1cccc([N+](=O)[O-])c1
- survivor count (T/C endpoint: mean survival time, dose: 400.0 mg/kg/injection, schedule: Q01DX009 (ip), vehicle: Klucel (hydroxypropylcellulose) (HPC)): 3 of 6

Structure (SMILES): C=CC(=O)c1ccccc1
- survivor count (T/C endpoint: mean survival time, dose: 200.0 mg/kg/injection, schedule: Q04DX002 (ip), vehicle: saline with Tween-80): 0 of 3
- survivor count (T/C endpoint: mean survival time, dose: 400.0 mg/kg/injection, schedule: Q04DX002 (ip), vehicle: saline with Tween-80): 0 of 3

Structure (SMILES): Nc1ncnc2c1ccn2C1OC(CO)C2[O][Sn]([c]3ccccc3)([c]3ccccc3)[O]C21 (stereo not given)
- survivor count (T/C endpoint: mean survival time, dose: 12.5 mg/kg/injection, schedule: Q01DX005 (ip), vehicle: other): 0 of 6
- survivor count (T/C endpoint: mean survival time, dose: 25.0 mg/kg/injection, schedule: Q01DX005 (ip), vehicle: other): 0 of 6
- survivor count (T/C endpoint: mean survival time, dose: 50.0 mg/kg/injection, schedule: Q01DX005 (ip), vehicle: other): 0 of 6
- survivor count (T/C endpoint: mean survival time, dose: 100.0 mg/kg/injection, schedule: Q01DX005 (ip), vehicle: other): 0 of 6
- survivor count (T/C endpoint: mean survival time, dose: 200.0 mg/kg/injection, schedule: Q01DX005 (ip), vehicle: other): 0 of 6

Structure (SMILES): CCNCc1cc(Nc2nc(NC3CCC(N(C)C)CC3)c3ccccc3n2)ccc1OC (stereo not given)
- survivor count (T/C endpoint: mean survival time, dose: 100.0 mg/kg/injection, schedule: Q01DX001 (ip), vehicle: saline): 0 of 6
- survivor count (T/C endpoint: mean survival time, dose: 200.0 mg/kg/injection, schedule: Q01DX001 (ip), vehicle: saline): 0 of 6
- survivor count [3]: 0 of 6

Structure (SMILES): CN(C)c1ccc(/C=C/C(=O)Cc2ccccc2)cc1
- survivor count (T/C endpoint: mean survival time, dose: 200.0 mg/kg/injection, schedule: Q01DX001 (ip), vehicle: saline sonified): 6 of 6
- survivor count (T/C endpoint: mean survival time, dose: 400.0 mg/kg/injection, schedule: Q01DX001 (ip), vehicle: saline sonified): 6 of 6

Structure (SMILES): Cn1c(=O)c2c(nc(NCCOC(=S)S)n2C)n(C)c1=O
- survivor count (T/C endpoint: mean survival time, dose: 100.0 mg/kg/injection, schedule: Q01DX005 (ip), vehicle: distilled water + Tween-80): 0 of 6
- survivor count (T/C endpoint: mean survival time, dose: 200.0 mg/kg/injection, schedule: Q01DX005 (ip), vehicle: distilled water + Tween-80): 0 of 6

Structure (SMILES): C[N+](C)(C)CC1CS1 (stereo not given)
- survivor count (T/C endpoint: mean survival time, dose: 75.0 mg/kg/injection, schedule: Q04DX003 (ip), vehicle: saline): 1 of 6
- survivor count (T/C endpoint: mean survival time, dose: 150.0 mg/kg/injection, schedule: Q04DX003 (ip), vehicle: saline): 0 of 6
- survivor count [2]: 0 of 6
